Results are given in words; binding and its absence hold for the method and conditions named. In cells and extracts the contact can be indirect. Binding can be weak; no strength is given.

Chains of the proteins cited; added tags and fusions are not shown. Lines headed by an entry give the natural chain unless they say otherwise; changes in a name come on top.
UniProt P40763: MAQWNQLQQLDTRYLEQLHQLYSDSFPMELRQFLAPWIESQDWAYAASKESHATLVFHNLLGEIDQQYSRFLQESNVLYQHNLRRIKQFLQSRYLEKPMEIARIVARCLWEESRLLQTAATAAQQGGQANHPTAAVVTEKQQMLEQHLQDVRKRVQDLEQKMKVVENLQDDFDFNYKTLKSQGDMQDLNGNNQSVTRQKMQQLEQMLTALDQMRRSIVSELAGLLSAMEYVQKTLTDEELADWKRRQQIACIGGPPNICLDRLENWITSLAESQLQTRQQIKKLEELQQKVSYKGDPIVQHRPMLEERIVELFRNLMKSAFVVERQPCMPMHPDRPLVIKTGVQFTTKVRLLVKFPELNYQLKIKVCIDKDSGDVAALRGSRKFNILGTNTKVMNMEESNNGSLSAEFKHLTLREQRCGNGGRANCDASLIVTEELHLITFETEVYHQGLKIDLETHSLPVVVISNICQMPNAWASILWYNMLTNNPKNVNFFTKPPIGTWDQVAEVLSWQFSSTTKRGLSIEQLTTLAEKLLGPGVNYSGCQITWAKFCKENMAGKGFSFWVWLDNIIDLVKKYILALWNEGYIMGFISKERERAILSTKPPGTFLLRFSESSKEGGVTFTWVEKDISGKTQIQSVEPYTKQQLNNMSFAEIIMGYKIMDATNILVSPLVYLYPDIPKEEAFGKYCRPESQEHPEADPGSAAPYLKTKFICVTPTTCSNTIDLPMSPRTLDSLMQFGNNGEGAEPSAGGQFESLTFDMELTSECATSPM
UniProt P42224: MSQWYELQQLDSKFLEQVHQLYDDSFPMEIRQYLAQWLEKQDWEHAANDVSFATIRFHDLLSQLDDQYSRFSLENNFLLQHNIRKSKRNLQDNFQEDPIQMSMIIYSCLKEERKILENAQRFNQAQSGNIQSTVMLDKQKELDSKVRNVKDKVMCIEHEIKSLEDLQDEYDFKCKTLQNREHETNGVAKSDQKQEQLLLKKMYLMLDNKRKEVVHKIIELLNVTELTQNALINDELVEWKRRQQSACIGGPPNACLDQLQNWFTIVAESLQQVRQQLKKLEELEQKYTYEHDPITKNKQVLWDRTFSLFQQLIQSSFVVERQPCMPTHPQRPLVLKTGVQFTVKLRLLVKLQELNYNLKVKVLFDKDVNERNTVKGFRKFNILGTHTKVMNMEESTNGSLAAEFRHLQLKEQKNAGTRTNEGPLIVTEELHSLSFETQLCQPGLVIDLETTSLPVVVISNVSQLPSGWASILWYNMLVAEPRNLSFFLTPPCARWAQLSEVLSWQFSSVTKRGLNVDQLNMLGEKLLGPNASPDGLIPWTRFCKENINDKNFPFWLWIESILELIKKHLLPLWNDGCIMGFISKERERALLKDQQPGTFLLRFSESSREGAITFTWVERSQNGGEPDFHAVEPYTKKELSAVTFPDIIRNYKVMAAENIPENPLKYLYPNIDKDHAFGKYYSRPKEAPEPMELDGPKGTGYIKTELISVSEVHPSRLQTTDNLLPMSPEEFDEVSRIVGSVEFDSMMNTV

This assay concerns the target STAT3 (human (endogenous in EC1 and EC109)) (UniProt P40763). Put plainly: co-IP; 2 ug anti-STAT3 monoclonal antibody added to 500 ug lysate (cell lytic M), overnight at 4°C, protein G Plus/A beads, washed with cold PBS and lysis buffer, Western blot; EC1 and EC109 cells 48 hours after transfection of STAT1C or empty vector. A general note: A western blot detects proteins with antibodies after separation by electrophoresis.

For “FLAG-tagged STAT1C (constitutively active form of STAT1) (from UniProt P42224)”, the binding result is on record as “binds”.
